For the test, the system named is righting reflex. Kind of test: Central nervous system depressive effect (disappearance of righting reflex, mouse). Format: in vivo, dd-strain male mice. The following applies: ip, read-out: CNS depressive effect (dose required for disappearance of righting reflex). The protocol:
Each test compound suspended in 0.5 % tragacanth-saline solution was injected intraperitoneally to dd-strain male mice (16-24 g). The disappearance of righting reflex was observed under noiseless circumstances. The dose required for the dissappearance of righting reflex is indicated with the following notations:
more than 1,000 (mg/kg) : -
less than 10 (mg/kg) : ++++

Molecules are shown by their SMILES.

With `CN1C(=O)CN=C(c2ccccc2)c2cc(Cl)ccc21` [diazepam, reference compound], the minimal effective dose is 30 to 100 mg/kg.

The values above are taken from patent publication US4016166A, “1-Nitrophenylquinazoline-2,4(1H,3H)-diones” (Hisamitsu Pharmaceutical Co., Inc., priority 1973, dated 1977).
